PubChem BioAssay AID686938, Drosophila RNAi Screening Center | 2013
The screen tested about 23,000 reagents; this is a random part of those with a known target gene and a result. In the full data, 75 (0.33%) were called active. 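Raw plate signals without normalisation; calls rest on plate z-scores that were not deposited; ratio present for only 364 wells.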 Entries without a mark were called inactive. Reagent sequences are not shown. Not stated in the record: the dose of the treatment.

Test: 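Fly genes required for calcium entry once internal stores are emptied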 (primary screen)
Cells: Drosophila S2R+ cells
Knock-down reagent: long dsRNA against Drosophila genes, about 0.25 µg dsRNA per well, roughly 10,000 cells
Duration: 5 days of knock-down before the calcium assay
Challenge: thapsigargin (SERCA pump blocker) to empty calcium stores; entry signal taken 4 min after adding it
Measured: 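Duplicate raw fluo-4 intensities per well from a plate reader, at rest and four minutes after thapsigargin emptied calcium stores; entry-to-rest ratio filled for only some wells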
Scale: calcium entry signal: higher = stronger calcium signal after store depletion; resting calcium signal: higher = higher resting calcium signal
Units: calcium entry signal in fluorescence units; resting calcium signal in fluorescence units
Hit rule: 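Called when the plate z-score of the entry-to-rest ratio, mean of duplicates, falls below −3; wells with low overall dye signal (Fmax z below −2) or more than five off-targets excluded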
Calls: active = strongly reduced calcium entry; inactive = no strong reduction

Knock-down of crq (croquemort) [DRSC00810] came out at: calcium entry signal, replicate 1 = 2.81e7; calcium entry signal, replicate 2 = 3.03e7; resting calcium signal, replicate 1 = 1.43e7; resting calcium signal, replicate 2 = 1.38e7.
tacc (transforming acidic coiled-coil protein) [DRSC12019] gave calcium entry signal, replicate 1 = 3.19e7; calcium entry signal, replicate 2 = 3.48e7; resting calcium signal, replicate 1 = 1.73e7; resting calcium signal, replicate 2 = 1.69e7.
Depletion of tacc (transforming acidic coiled-coil protein) [DRSC12388] came out at: calcium entry signal, replicate 1 = 3.74e7; calcium entry signal, replicate 2 = 3.07e7; resting calcium signal, replicate 1 = 1.78e7; resting calcium signal, replicate 2 = 1.62e7.
Ance (Angiotensin converting enzyme) [DRSC01865] gave calcium entry signal, replicate 1 = 4.54e7; resting calcium signal, replicate 1 = 2.09e7.
For CG42570 [DRSC09391] the deposit lists calcium entry signal, replicate 1 = 2.18e7; calcium entry signal, replicate 2 = 2.79e7; resting calcium signal, replicate 1 = 1.07e7; resting calcium signal, replicate 2 = 1.36e7.
Silencing of hydra [DRSC20497] resulted in: calcium entry signal, replicate 1 = 5.52e7; calcium entry signal, replicate 2 = 5.81e7; resting calcium signal, replicate 1 = 2.80e7; resting calcium signal, replicate 2 = 2.56e7.
For cher (cheerio) [DRSC16924] the deposit lists calcium entry signal, replicate 1 = 3.83e7; calcium entry signal, replicate 2 = 3.51e7; resting calcium signal, replicate 1 = 1.91e7; resting calcium signal, replicate 2 = 1.61e7.
For CG11436 [DRSC17783], the entry reads calcium entry signal, replicate 1 = 3.94e7; calcium entry signal, replicate 2 = 3.90e7; resting calcium signal, replicate 1 = 1.80e7; resting calcium signal, replicate 2 = 1.79e7.
Silencing of CG13408 [DRSC13534] resulted in: calcium entry signal, replicate 1 = 4.22e7; calcium entry signal, replicate 2 = 2.73e7; resting calcium signal, replicate 1 = 2.19e7; resting calcium signal, replicate 2 = 1.35e7.
Knock-down of CG13408 [DRSC14584] gave: calcium entry signal, replicate 1 = 3.90e7; calcium entry signal, replicate 2 = 5.28e7; resting calcium signal, replicate 1 = 5.33e7; resting calcium signal, replicate 2 = 2.20e7.
For Usp20-33 (Ubiquitin specific protease 20/33) [DRSC07196], the entry reads calcium entry signal, replicate 1 = 4.16e7; calcium entry signal, replicate 2 = 4.45e7; resting calcium signal, replicate 1 = 1.79e7; resting calcium signal, replicate 2 = 2.01e7.

Records listed so far whose gene name starts with T or t (2):
tacc (transforming acidic coiled-coil protein) [DRSC12019] → calcium entry signal, replicate 1: 3.19e7; calcium entry signal, replicate 2: 3.48e7; resting calcium signal, replicate 1: 1.73e7; resting calcium signal, replicate 2: 1.69e7
tacc (transforming acidic coiled-coil protein) [DRSC12388] → calcium entry signal, replicate 1: 3.74e7; calcium entry signal, replicate 2: 3.07e7; resting calcium signal, replicate 1: 1.78e7; resting calcium signal, replicate 2: 1.62e7

The results go on:
CG10418 [DRSC09720] gave calcium entry signal, replicate 1 = 2.39e7; calcium entry signal, replicate 2 = 3.58e7; resting calcium signal, replicate 1 = 1.34e7; resting calcium signal, replicate 2 = 1.76e7.
Against RpL38 (Ribosomal protein L38) [DRSC07818], the entry reads calcium entry signal, replicate 1 = 1.36e7; calcium entry signal, replicate 2 = 1.53e7; resting calcium signal, replicate 1 = 1.02e7; resting calcium signal, replicate 2 = 1.00e7.
Depletion of LRR (Leucine-rich repeat) [DRSC06444] resulted in: calcium entry signal, replicate 1 = 3.96e7; calcium entry signal, replicate 2 = 4.68e7; resting calcium signal, replicate 1 = 2.00e7; resting calcium signal, replicate 2 = 2.40e7.
With knock-down of sna (snail) [DRSC03613], the screen gave calcium entry signal, replicate 1 = 4.20e7; calcium entry signal, replicate 2 = 3.45e7; resting calcium signal, replicate 1 = 1.92e7; resting calcium signal, replicate 2 = 1.75e7.
After knock-down of PpD6 (Protein phosphatase D6) [DRSC00774], the record shows calcium entry signal, replicate 1 = 3.10e7; calcium entry signal, replicate 2 = 2.22e7; resting calcium signal, replicate 1 = 1.56e7; resting calcium signal, replicate 2 = 1.07e7.
Depletion of PpD6 (Protein phosphatase D6) [DRSC23331] resulted in: calcium entry signal, replicate 1 = 3.11e7; calcium entry signal, replicate 2 = 3.37e7; resting calcium signal, replicate 1 = 1.71e7; resting calcium signal, replicate 2 = 1.52e7.
Against CG7506 [DRSC10860], the entry reads calcium entry signal, replicate 1 = 3.72e7; calcium entry signal, replicate 2 = 3.93e7; resting calcium signal, replicate 1 = 2.44e7; resting calcium signal, replicate 2 = 1.56e7.
With knock-down of Nmnat (Nicotinamide mononucleotide adenylyltransferase) [DRSC14644], the screen gave calcium entry signal, replicate 1 = 4.25e7; calcium entry signal, replicate 2 = 3.62e7; resting calcium signal, replicate 1 = 2.02e7; resting calcium signal, replicate 2 = 1.70e7.
CASK [DRSC14588] scored calcium entry signal, replicate 1 = 3.59e7; calcium entry signal, replicate 2 = 4.08e7; resting calcium signal, replicate 1 = 5.46e7; resting calcium signal, replicate 2 = 2.12e7.
CASK [DRSC16597] gave calcium entry signal, replicate 1 = 3.67e7; calcium entry signal, replicate 2 = 3.42e7; resting calcium signal, replicate 1 = 3.64e7; resting calcium signal, replicate 2 = 1.41e7.
Depletion of CASK [DRSC16598] came out at: calcium entry signal, replicate 1 = 2.25e7; calcium entry signal, replicate 2 = 3.47e7; resting calcium signal, replicate 1 = 1.36e7; resting calcium signal, replicate 2 = 5.48e7.
CASK [DRSC21917] showed calcium entry signal, replicate 1 = 3.41e7; calcium entry signal, replicate 2 = 4.52e7; resting calcium signal, replicate 1 = 1.62e7; resting calcium signal, replicate 2 = 2.61e7.
CG33252 [DRSC19162] gave calcium entry signal, replicate 1 = 3.47e7; calcium entry signal, replicate 2 = 3.41e7; resting calcium signal, replicate 1 = 1.73e7; resting calcium signal, replicate 2 = 1.60e7.
lncRNA:CR30121 (long non-coding RNA:CR30121) [DRSC21481] scored calcium entry signal, replicate 1 = 2.58e7; calcium entry signal, replicate 2 = 2.96e7; resting calcium signal, replicate 1 = 1.45e7; resting calcium signal, replicate 2 = 1.52e7.
After knock-down of bc10 [DRSC11326], the screen gave calcium entry signal, replicate 1 = 3.98e7; calcium entry signal, replicate 2 = 5.55e7; resting calcium signal, replicate 1 = 1.77e7; resting calcium signal, replicate 2 = 2.34e7.
Depletion of Or74a (Odorant receptor 74a) [DRSC11245] came out at: calcium entry signal, replicate 1 = 5.06e7; calcium entry signal, replicate 2 = 6.30e7; resting calcium signal, replicate 1 = 2.11e7; resting calcium signal, replicate 2 = 2.77e7.
